Measurements reported in publication PMC7956748.
No constants are given. Whether binding was seen depends on the method and setting. Some binding calls cover weakened binding; strength is not graded here.

By UniProt entry, the sequences of proteins in these tests, tags left out. Residues count along the entry.
UniProt P01137, residues 279-390: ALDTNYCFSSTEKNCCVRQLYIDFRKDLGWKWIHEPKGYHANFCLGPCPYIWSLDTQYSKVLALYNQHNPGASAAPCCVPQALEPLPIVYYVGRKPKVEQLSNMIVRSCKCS
UniProt P35444, residues 20-755: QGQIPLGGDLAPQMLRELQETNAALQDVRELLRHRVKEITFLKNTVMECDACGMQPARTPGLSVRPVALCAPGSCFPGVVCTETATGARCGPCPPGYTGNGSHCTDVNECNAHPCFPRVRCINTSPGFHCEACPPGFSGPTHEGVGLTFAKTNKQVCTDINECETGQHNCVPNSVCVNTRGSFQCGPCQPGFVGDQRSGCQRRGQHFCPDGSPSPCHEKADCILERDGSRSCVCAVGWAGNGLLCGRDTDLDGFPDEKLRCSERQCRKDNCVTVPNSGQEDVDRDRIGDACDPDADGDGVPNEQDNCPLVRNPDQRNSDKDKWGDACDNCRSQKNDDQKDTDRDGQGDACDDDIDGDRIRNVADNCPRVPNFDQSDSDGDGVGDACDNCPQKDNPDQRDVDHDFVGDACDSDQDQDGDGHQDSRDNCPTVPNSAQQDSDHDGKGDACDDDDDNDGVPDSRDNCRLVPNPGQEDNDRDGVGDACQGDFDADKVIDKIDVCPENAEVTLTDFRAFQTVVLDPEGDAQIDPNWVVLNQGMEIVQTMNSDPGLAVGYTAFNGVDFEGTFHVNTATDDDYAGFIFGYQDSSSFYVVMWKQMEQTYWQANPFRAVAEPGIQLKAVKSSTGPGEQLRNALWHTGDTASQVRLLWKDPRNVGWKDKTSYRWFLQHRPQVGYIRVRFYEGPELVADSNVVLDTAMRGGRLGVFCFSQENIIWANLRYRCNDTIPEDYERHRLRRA
UniProt P49744, residues 43-980: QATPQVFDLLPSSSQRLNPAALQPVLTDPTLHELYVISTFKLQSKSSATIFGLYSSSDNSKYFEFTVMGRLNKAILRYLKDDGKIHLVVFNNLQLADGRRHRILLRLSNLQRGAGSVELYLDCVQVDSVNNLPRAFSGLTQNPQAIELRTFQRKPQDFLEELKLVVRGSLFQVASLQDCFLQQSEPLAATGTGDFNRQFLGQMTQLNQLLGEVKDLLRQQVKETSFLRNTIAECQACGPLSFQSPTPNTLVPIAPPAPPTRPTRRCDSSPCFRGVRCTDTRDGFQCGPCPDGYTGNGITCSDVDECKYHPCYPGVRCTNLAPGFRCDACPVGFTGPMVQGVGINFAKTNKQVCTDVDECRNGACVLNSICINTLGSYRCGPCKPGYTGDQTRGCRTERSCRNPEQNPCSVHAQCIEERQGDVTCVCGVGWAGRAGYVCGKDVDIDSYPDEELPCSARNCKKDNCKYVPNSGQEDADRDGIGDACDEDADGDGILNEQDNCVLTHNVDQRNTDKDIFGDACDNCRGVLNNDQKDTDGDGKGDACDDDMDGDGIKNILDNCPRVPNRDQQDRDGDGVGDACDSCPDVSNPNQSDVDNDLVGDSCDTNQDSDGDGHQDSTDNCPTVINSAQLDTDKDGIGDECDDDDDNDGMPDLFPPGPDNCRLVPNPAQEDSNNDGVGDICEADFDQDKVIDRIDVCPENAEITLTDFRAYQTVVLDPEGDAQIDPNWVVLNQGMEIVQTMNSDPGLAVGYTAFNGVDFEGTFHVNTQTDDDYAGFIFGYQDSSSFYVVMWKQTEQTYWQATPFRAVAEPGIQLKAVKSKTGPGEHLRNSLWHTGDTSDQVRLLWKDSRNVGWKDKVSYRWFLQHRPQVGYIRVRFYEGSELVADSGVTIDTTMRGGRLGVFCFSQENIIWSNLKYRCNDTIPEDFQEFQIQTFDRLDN

Biological target: transforming growth factor-beta 1 (TGF-β1) (UniProt P01137)
Assay: SPR; Biacore 2000, 25 °C; TGF-β1 coupled to a CM5 chip (1500 U); COMP and TSP-4 as analytes, 1:2 dilution series from 160 to 0 (legend: 5 to 160 nM), running buffer of Biacore AB, 30 µl/min; regeneration with 2 M NaCl; multicycle kinetics fitted to a 1:1 (Langmuir) model; both purified

| Substance | binding |
| --- | --- |
| cartilage oligomeric matrix protein (COMP), recombinant full-length rat (from UniProt P35444 20-755) | binds |
| thrombospondin-4 (TSP-4), recombinant full-length rat (from UniProt P49744 43-980) | binds |
